Reference: paper doi:10.1101/2021.08.06.455464

Target: GFP-G3BP1 (Ras-GTPase activating SH3 domain binding protein 1) (UniProt Q13283)
Assay: affinity purification with mass spectrometry

B1: DDX1 (protein, UniProt Q92499 1-740)
chain: MAAFSEMGVMPEIAQAVEEMDWLLPTDIQAESIPLILGGGDVLMAAETGSGKTGAFSIPVIQIVYETLKDQQEGKKGKTTIKTGASVLNKWQMNPYDRGSAFAIGSDGLCCQSREVKEWHGCRATKGLMKGKHYYEVSCHDQGLCRVGWSTMQASLDLGTDKFGFGFGGTGKKSHNKQFDNYGEEFTMHDTIGCYLDIDKGHVKFSKNGKDLGLAFEIPPHMKNQALFPACVLKNAELKFNFGEEEFKFPPKDGFVALSKAPDGYIVKSQHSGNAQVTQTKFLPNAPKALIVEPSRELAEQTLNNIKQFKKYIDNPKLRELLIIGGVAARDQLSVLENGVDIVVGTPGRLDDLVSTGKLNLSQVRFLVLDEADGLLSQGYSDFINRMHNQIPQVTSDGKRLQVIVCSATLHSFDVKKLSEKIMHFPTWVDLKGEDSVPDTVHHVVVPVNPKTDRLWERLGKSHIRTDDVHAKDNTRPGANSPEMWSEAIKILKGEYAVRAIKEHKMDQAIIFCRTKIDCDNLEQYFIQQGGGPDKKGHQFSCVCLHGDRKPHERKQNLERFKKGDVRFLICTDVAARGIDIHGVPYVINVTLPDEKQNYVHRIGRVGRAERMGLAISLVATEKEKVWYHVCSSRGKGCYNTRLKEDGGCTIWYNEMQLLSEIEEHLNCTISQVEPDIKVPVDEFDGKVTYGQKRAAGGGSYKGHVDILAPTVQELAALEKEAQTSFLHLGYLPNQLFRTF
Q: How did the binding turn out when B1 was run?
A: The binding was “binds”.

B2: SRSF7 (protein, UniProt Q16629 1-238)
chain: MSRYGRYGGETKVYVGNLGTGAGKGELERAFSYYGPLRTVWIARNPPGFAFVEFEDPRDAEDAVRGLDGKVICGSRVRVELSTGMPRRSRFDRPPARRPFDPNDRCYECGEKGHYAYDCHRYSRRRRSRSRSRSHSRSRGRRYSRSRSRSRGRRSRSASPRRSRSISLRRSRSASLRRSRSGSIKGSRYFQSPSRSRSRSRSISRPRSSRSKSRSPSPKRSRSPSGSPRRSASPERMD
Q: B2 was tested. Which binding did it give?
A: Its binding is “binds”.

B3: G3BP2 (protein, UniProt Q9UN86 1-482)
chain: MVMEKPSPLLVGREFVRQYYTLLNKAPEYLHRFYGRNSSYVHGGVDASGKPQEAVYGQNDIHHKVLSLNFSECHTKIRHVDAHATLSDGVVVQVMGLLSNSGQPERKFMQTFVLAPEGSVPNKFYVHNDMFRYEDEVFGDSEPELDEESEDEVEEEQEERQPSPEPVQENANSGYYEAHPVTNGIEEPLEESSHEPEPEPESETKTEELKPQVEEKNLEELEEKSTTPPPAEPVSLPQEPPKAFSWASVTSKNLPPSGTVSSSGIPPHVKAPVSQPRVEAKPEVQSQPPRVREQRPRERPGFPPRGPRPGRGDMEQNDSDNRRIIRYPDSHQLFVGNLPHDIDENELKEFFMSFGNVVELRINTKGVGGKLPNFGFVVFDDSEPVQRILIAKPIMFRGEVRLNVEEKKTRAARERETRGGGDDRRDIRRNDRGPGGPRGIVGGGMMRDRDGRGPPPRGGMAQKLGSGRGTGQMEGRFTGQRR
Q: How did the binding turn out when B3 was run?
A: Its binding is “binds”.

These are yes or no findings as the source states them, for the method shown. Binding seen in cells or lysates may run through a third protein. These calls come from enrichment with a bait or labelling near it, and not all partners need be listed.
